# ± gives the standard deviation of the averaged measurements. The list shows a part of the results. Only hits are listed; about a third recur on repeated control peptides.
# Protein sequences, listed by entry. Tags and fused reporters are not part of them.
# ATXN2, Q99700, UniProt Q99700, whole entry: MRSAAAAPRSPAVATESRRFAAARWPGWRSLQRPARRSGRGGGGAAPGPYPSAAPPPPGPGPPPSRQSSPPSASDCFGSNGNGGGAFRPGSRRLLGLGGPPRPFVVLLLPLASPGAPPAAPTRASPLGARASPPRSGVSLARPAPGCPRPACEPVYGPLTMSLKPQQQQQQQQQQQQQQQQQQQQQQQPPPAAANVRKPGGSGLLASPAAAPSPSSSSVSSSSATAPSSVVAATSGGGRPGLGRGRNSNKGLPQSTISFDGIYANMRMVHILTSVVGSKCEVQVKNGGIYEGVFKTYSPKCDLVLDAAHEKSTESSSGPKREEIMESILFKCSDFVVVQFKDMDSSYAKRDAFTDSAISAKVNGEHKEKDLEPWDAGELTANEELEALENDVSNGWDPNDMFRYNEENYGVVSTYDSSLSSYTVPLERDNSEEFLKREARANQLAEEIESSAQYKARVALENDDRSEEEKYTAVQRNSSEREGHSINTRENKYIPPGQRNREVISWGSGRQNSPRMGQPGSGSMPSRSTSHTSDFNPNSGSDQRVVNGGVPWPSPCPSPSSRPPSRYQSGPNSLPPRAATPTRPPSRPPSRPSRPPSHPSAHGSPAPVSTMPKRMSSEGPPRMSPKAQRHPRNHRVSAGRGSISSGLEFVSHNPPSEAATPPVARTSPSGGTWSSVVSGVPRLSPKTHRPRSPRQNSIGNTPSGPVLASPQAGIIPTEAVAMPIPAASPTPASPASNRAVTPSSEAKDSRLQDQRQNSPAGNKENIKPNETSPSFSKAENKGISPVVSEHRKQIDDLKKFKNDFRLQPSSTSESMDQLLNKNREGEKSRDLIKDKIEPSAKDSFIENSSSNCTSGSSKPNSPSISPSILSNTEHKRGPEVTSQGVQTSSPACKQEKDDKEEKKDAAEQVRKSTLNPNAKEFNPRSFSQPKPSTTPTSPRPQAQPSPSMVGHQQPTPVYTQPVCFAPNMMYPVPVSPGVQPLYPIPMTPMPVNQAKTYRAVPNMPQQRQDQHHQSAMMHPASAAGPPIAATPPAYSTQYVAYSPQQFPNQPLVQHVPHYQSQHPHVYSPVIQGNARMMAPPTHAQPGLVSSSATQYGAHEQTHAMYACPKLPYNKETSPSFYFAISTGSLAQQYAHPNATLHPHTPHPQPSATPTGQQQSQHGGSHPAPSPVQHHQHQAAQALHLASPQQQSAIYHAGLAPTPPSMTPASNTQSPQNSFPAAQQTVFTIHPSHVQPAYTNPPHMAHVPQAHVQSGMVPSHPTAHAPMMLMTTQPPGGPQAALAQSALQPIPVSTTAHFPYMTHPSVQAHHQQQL
# BUB3, O43684, UniProt O43684, whole entry: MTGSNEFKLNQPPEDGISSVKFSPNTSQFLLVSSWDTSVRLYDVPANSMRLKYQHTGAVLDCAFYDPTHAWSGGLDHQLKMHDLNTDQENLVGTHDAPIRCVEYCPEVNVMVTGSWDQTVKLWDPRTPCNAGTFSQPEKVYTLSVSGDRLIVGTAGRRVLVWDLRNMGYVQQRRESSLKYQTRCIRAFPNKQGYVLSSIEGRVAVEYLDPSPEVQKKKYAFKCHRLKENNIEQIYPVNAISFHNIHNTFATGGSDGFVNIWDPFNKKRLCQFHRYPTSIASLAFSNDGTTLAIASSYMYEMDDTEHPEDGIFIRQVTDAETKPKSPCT
# CRIPT, Q9P021, UniProt Q9P021, whole entry: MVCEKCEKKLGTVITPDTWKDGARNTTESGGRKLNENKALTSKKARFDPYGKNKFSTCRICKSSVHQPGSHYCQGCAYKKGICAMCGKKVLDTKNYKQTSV
# DNAJB1, P25685, UniProt P25685, whole entry: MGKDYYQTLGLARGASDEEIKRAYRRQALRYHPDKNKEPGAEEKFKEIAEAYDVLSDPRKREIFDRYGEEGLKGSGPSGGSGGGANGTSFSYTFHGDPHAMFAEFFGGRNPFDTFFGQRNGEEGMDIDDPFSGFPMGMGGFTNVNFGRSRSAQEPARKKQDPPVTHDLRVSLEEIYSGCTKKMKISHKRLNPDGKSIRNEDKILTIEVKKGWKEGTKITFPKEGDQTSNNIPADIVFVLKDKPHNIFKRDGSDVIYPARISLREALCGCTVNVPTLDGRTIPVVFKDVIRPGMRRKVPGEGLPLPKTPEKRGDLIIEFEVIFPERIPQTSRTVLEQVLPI
# Assays:
# Test in all cases: PRISMA enrichment of interactor (LFQ) in peptide spot vs all other peptide spots (log2 fold change); higher = stronger / more specific binding of the interactor to the peptide
# ACAA1, P09110 = target: ACAA1, P09110
# Protocol: (§1)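 PRISMA: 221 full-length sORF-encoded peptides (3-15 aa), plus SOS1/GLUT1 control peptides, were spot-synthesized on cellulose membranes in triplicate. Membranes were incubated with HEK293T lysate, and bound proteins were identified by LC-MS/MS with LFQ. Enrichment is the log2 fold change versus all other peptide spots; only significant interactors are listed (cutoff c=6, x0=2.8).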
# ACAD11, Q709F0 = target: ACAD11, Q709F0
# Protocol: as §1
# ALKBH2, Q6NS38 = target: ALKBH2, Q6NS38
# Protocol: as §1
# ALKBH5, Q6P6C2 = target: ALKBH5, Q6P6C2
# Protocol: as §1
# ALYREF, Q86V81 = target: ALYREF, Q86V81
# Protocol: as §1
# ANKRD30B, Q9BXX2 = target: ANKRD30B, Q9BXX2
# Protocol: as §1
# ATXN2, Q99700 = target: ATXN2, Q99700
# Protocol: as §1
# ATXN2L, Q8WWM7 = target: ATXN2L, Q8WWM7
# Protocol: as §1
# BAIAP2, Q9UQB8 = target: BAIAP2, Q9UQB8
# Protocol: as §1
# BCKDK, O14874 = target: BCKDK, O14874
# Protocol: as §1
# BUB3, O43684 = target: BUB3, O43684
# Protocol: as §1
# C19orf53, Q9UNZ5 = target: C19orf53, Q9UNZ5
# Protocol: as §1
# C1orf131, Q8NDD1 = target: C1orf131, Q8NDD1
# Protocol: as §1
# C8orf33, Q9H7E9 = target: C8orf33, Q9H7E9
# Protocol: as §1
# CC2D1A, Q6P1N0 = target: CC2D1A, Q6P1N0
# Protocol: as §1
# CCDC137, Q6PK04 = target: CCDC137, Q6PK04
# Protocol: as §1
# CCDC59, Q9P031 = target: CCDC59, Q9P031
# Protocol: as §1
# CHID1, Q9BWS9 = target: CHID1, Q9BWS9
# Protocol: as §1
# CHTOP, Q9Y3Y2 = target: CHTOP, Q9Y3Y2
# Protocol: as §1
# CIRBP, Q14011 = target: CIRBP, Q14011
# Protocol: as §1
# CKMT1A, P12532 = target: CKMT1A, P12532
# Protocol: as §1
# COA7, Q96BR5 = target: COA7, Q96BR5
# Protocol: as §1
# CPSF7, Q8N684 = target: CPSF7, Q8N684
# Protocol: as §1
# CRIPT, Q9P021 = target: CRIPT, Q9P021
# Protocol: as §1
# CSNK1A1, P48729 = target: CSNK1A1, P48729
# Protocol: as §1
# CSNK1E, P49674 = target: CSNK1E, P49674
# Protocol: as §1
# CSRP2, Q16527 = target: CSRP2, Q16527
# Protocol: as §1
# CXorf56, Q9H5V9 = target: CXorf56, Q9H5V9
# Protocol: as §1
# DAZAP1, Q96EP5 = target: DAZAP1, Q96EP5
# Protocol: as §1
# DDX1, Q92499 = target: DDX1, Q92499
# Protocol: as §1
# DDX47, Q9H0S4 = target: DDX47, Q9H0S4
# Protocol: as §1
# DDX49, Q9Y6V7 = target: DDX49, Q9Y6V7
# Protocol: as §1
# DDX6, P26196 = target: DDX6, P26196
# Protocol: as §1
# DECR2, Q9NUI1 = target: DECR2, Q9NUI1
# Protocol: as §1
# DERPC, P0CG12 = target: DERPC, P0CG12
# Protocol: as §1
# DNAJA3, Q96EY1 = target: DNAJA3, Q96EY1
# Protocol: as §1
# DNAJB1, P25685 = target: DNAJB1, P25685
# Protocol: as §1
# DNAJB4, Q9UDY4 = target: DNAJB4, Q9UDY4
# Protocol: as §1
# EDF1, O60869 = target: EDF1, O60869
# Protocol: as §1
# EEFSEC, P57772 = target: EEFSEC, P57772
# Protocol: as §1
# EGLN1, Q9GZT9 = target: EGLN1, Q9GZT9
# Protocol: as §1
# EHHADH, Q08426 = target: EHHADH, Q08426
# Protocol: as §1
# EMG1, Q92979 = target: EMG1, Q92979
# Protocol: as §1
# EWSR1, Q01844 = target: EWSR1, Q01844
# Protocol: as §1
# FAM98A, Q8NCA5 = target: FAM98A, Q8NCA5
# Protocol: as §1
# FBL, P22087 = target: FBL, P22087
# Protocol: as §1
# FKBP2, P26885 = target: FKBP2, P26885
# Protocol: as §1
# FTSJ3, Q8IY81 = target: FTSJ3, Q8IY81
# Protocol: as §1
# FUBP1, Q96AE4 = target: FUBP1, Q96AE4
# Protocol: as §1
# FUS, P35637 = target: FUS, P35637
# Protocol: as §1
# GABARAPL2, P60520 = target: GABARAPL2, P60520
# Protocol: as §1
# GSK3B, P49841 = target: GSK3B, P49841
# Protocol: as §1
# GTPBP1, O00178 = target: GTPBP1, O00178
# Protocol: as §1
# HMGB2, P26583 = target: HMGB2, P26583
# Protocol: as §1
# HNRNPA0, Q13151 = target: HNRNPA0, Q13151
# Protocol: as §1
# HNRNPA1, P09651 = target: HNRNPA1, P09651
# Protocol: as §1
# HNRNPA2B1, P22626 = target: HNRNPA2B1, P22626
# Protocol: as §1
# HNRNPA3, P51991 = target: HNRNPA3, P51991
# Protocol: as §1
# HP1BP3, Q5SSJ5 = target: HP1BP3, Q5SSJ5
# Protocol: as §1
# IBA57, Q5T440 = target: IBA57, Q5T440
# Protocol: as §1
binder,measurement,setting,value
MTEYWVPEI [RCBTB2],PRISMA enrichment of interactor (log2),"ACAA1, P09110",4.95
same,PRISMA enrichment of interactor (log2),"ACAD11, Q709F0",5.78
same,PRISMA enrichment of interactor (log2),"ALKBH2, Q6NS38",5.94
same,PRISMA enrichment of interactor (log2),"ALKBH5, Q6P6C2",5.14
same,PRISMA enrichment of interactor (log2),"ALYREF, Q86V81",5.91 ± 0.29
same,PRISMA enrichment of interactor (log2),"ANKRD30B, Q9BXX2",4.15
same,PRISMA enrichment of interactor (log2),"ATXN2, Q99700",5.42
same,PRISMA enrichment of interactor (log2),"ATXN2L, Q8WWM7",5.61
same,PRISMA enrichment of interactor (log2),"BAIAP2, Q9UQB8",6.75
same,PRISMA enrichment of interactor (log2),"BCKDK, O14874",6.55
same,PRISMA enrichment of interactor (log2),"BUB3, O43684",5.04
same,PRISMA enrichment of interactor (log2),"C19orf53, Q9UNZ5",7.48
same,PRISMA enrichment of interactor (log2),"C1orf131, Q8NDD1",4.01
same,PRISMA enrichment of interactor (log2),"C8orf33, Q9H7E9",4.41
same,PRISMA enrichment of interactor (log2),"CC2D1A, Q6P1N0",8.46
same,PRISMA enrichment of interactor (log2),"CCDC137, Q6PK04",7.41
same,PRISMA enrichment of interactor (log2),"CCDC59, Q9P031",5.59
same,PRISMA enrichment of interactor (log2),"CHID1, Q9BWS9",4.2
same,PRISMA enrichment of interactor (log2),"CHTOP, Q9Y3Y2",5.9
same,PRISMA enrichment of interactor (log2),"CIRBP, Q14011",4.99
same,PRISMA enrichment of interactor (log2),"CKMT1A, P12532",8.41
same,PRISMA enrichment of interactor (log2),"COA7, Q96BR5",7.26
same,PRISMA enrichment of interactor (log2),"CPSF7, Q8N684",6.77
same,PRISMA enrichment of interactor (log2),"CRIPT, Q9P021",4.19
same,PRISMA enrichment of interactor (log2),"CSNK1A1, P48729",7.77
same,PRISMA enrichment of interactor (log2),"CSNK1E, P49674",7.73
same,PRISMA enrichment of interactor (log2),"CSRP2, Q16527",6.92
same,PRISMA enrichment of interactor (log2),"CXorf56, Q9H5V9",7.4
same,PRISMA enrichment of interactor (log2),"DAZAP1, Q96EP5",6.59
same,PRISMA enrichment of interactor (log2),"DDX1, Q92499",5.5
same,PRISMA enrichment of interactor (log2),"DDX47, Q9H0S4",5.33
same,PRISMA enrichment of interactor (log2),"DDX49, Q9Y6V7",5.9
same,PRISMA enrichment of interactor (log2),"DDX6, P26196",5.55
same,PRISMA enrichment of interactor (log2),"DECR2, Q9NUI1",6.14
same,PRISMA enrichment of interactor (log2),"DERPC, P0CG12",7.12
same,PRISMA enrichment of interactor (log2),"DNAJA3, Q96EY1",5.55
same,PRISMA enrichment of interactor (log2),"DNAJB1, P25685",7.24
same,PRISMA enrichment of interactor (log2),"DNAJB4, Q9UDY4",4.85
same,PRISMA enrichment of interactor (log2),"EDF1, O60869",5.85
same,PRISMA enrichment of interactor (log2),"EEFSEC, P57772",6.25
same,PRISMA enrichment of interactor (log2),"EGLN1, Q9GZT9",6.14
same,PRISMA enrichment of interactor (log2),"EHHADH, Q08426",8.14
same,PRISMA enrichment of interactor (log2),"EMG1, Q92979",7.27
same,PRISMA enrichment of interactor (log2),"EWSR1, Q01844",5.89
same,PRISMA enrichment of interactor (log2),"FAM98A, Q8NCA5",5.13
same,PRISMA enrichment of interactor (log2),"FBL, P22087",5.54
same,PRISMA enrichment of interactor (log2),"FKBP2, P26885",5.32
same,PRISMA enrichment of interactor (log2),"FTSJ3, Q8IY81",5.26
same,PRISMA enrichment of interactor (log2),"FUBP1, Q96AE4",5.83
same,PRISMA enrichment of interactor (log2),"FUS, P35637",5.83
same,PRISMA enrichment of interactor (log2),"GABARAPL2, P60520",7.53
same,PRISMA enrichment of interactor (log2),"GSK3B, P49841",6.72
same,PRISMA enrichment of interactor (log2),"GTPBP1, O00178",7.27
same,PRISMA enrichment of interactor (log2),"HMGB2, P26583",5.15
same,PRISMA enrichment of interactor (log2),"HNRNPA0, Q13151",5.93
same,PRISMA enrichment of interactor (log2),"HNRNPA1, P09651",5.47
same,PRISMA enrichment of interactor (log2),"HNRNPA2B1, P22626",4.33
same,PRISMA enrichment of interactor (log2),"HNRNPA3, P51991",5.77
same,PRISMA enrichment of interactor (log2),"HP1BP3, Q5SSJ5",5.93
same,PRISMA enrichment of interactor (log2),"IBA57, Q5T440",7.49

# Quoted at random: 2 records from the list
binder,measurement,setting,value
MTEYWVPEI [RCBTB2],PRISMA enrichment of interactor (log2),"EHHADH, Q08426",8.14
same,PRISMA enrichment of interactor (log2),"BAIAP2, Q9UQB8",6.75

# From the supplement of paper PMC10032668
